# In the supplement of paper PMC10849652:
# By UniProt entry, the sequences of proteins in these tests, tags left out. Where a name states a change or a piece, a line headed by the entry shows the natural chain unless it says otherwise.
# UniProt Q9Y2Q3: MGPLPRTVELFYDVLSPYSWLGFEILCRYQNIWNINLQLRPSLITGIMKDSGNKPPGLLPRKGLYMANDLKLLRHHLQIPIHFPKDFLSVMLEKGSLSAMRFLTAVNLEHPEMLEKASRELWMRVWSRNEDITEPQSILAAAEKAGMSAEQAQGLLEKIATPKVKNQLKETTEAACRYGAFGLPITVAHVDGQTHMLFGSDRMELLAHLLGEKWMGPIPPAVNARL
# UniProt P13807: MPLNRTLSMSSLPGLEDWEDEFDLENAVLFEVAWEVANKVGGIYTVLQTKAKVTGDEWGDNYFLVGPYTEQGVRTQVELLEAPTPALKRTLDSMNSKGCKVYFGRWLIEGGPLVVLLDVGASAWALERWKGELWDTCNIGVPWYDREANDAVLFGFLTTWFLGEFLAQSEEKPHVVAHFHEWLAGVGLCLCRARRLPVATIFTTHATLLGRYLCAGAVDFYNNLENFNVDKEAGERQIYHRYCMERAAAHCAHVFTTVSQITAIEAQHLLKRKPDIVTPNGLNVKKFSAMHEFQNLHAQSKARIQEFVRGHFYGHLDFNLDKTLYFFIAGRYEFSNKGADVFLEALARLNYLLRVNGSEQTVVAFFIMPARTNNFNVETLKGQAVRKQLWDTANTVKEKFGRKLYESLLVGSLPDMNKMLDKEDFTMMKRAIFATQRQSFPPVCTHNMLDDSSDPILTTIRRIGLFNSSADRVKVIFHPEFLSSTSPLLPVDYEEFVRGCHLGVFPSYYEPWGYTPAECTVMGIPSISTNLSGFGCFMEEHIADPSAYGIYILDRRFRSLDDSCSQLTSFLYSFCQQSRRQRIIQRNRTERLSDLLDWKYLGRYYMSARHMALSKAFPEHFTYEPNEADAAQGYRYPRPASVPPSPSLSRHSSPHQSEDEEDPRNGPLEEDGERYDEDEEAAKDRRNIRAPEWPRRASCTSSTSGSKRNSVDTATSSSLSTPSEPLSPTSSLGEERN
# UniProt Q9NYZ3: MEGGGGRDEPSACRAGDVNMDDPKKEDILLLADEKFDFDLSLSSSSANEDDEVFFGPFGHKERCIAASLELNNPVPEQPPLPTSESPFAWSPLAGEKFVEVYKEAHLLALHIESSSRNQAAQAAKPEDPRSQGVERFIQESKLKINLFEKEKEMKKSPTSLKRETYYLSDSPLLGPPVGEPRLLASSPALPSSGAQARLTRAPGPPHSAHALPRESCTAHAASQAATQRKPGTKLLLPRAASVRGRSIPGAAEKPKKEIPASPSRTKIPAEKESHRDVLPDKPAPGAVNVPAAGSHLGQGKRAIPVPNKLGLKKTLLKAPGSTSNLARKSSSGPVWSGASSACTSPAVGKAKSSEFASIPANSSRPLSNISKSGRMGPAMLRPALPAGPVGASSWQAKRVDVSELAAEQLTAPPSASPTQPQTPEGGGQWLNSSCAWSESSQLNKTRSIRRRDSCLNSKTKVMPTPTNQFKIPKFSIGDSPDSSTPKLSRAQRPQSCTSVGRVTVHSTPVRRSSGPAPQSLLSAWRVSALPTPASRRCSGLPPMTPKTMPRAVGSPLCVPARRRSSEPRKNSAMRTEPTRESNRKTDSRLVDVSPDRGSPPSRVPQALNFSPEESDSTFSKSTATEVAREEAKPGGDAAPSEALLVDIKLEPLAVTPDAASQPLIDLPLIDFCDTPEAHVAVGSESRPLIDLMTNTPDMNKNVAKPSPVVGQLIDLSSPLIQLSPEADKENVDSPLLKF
# UniProt Q8WW33: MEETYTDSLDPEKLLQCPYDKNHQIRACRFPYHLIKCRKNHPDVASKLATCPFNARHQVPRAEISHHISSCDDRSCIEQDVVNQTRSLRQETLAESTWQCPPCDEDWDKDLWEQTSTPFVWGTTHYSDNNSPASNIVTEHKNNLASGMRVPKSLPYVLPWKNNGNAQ
# UniProt P15170, whole entry, looked up: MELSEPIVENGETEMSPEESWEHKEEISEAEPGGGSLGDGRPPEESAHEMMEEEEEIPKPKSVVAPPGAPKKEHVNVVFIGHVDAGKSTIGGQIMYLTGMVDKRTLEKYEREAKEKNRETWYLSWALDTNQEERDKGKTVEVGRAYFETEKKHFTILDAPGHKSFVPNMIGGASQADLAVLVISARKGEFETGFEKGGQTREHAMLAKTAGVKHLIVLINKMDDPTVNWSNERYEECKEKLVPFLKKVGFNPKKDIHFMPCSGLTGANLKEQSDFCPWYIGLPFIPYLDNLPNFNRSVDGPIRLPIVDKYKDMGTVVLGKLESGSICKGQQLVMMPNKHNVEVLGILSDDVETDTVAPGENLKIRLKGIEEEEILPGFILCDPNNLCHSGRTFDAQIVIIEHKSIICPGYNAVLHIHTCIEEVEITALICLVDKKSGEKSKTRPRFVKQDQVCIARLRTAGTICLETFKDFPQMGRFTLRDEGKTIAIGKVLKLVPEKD
# UniProt Q8WUA4: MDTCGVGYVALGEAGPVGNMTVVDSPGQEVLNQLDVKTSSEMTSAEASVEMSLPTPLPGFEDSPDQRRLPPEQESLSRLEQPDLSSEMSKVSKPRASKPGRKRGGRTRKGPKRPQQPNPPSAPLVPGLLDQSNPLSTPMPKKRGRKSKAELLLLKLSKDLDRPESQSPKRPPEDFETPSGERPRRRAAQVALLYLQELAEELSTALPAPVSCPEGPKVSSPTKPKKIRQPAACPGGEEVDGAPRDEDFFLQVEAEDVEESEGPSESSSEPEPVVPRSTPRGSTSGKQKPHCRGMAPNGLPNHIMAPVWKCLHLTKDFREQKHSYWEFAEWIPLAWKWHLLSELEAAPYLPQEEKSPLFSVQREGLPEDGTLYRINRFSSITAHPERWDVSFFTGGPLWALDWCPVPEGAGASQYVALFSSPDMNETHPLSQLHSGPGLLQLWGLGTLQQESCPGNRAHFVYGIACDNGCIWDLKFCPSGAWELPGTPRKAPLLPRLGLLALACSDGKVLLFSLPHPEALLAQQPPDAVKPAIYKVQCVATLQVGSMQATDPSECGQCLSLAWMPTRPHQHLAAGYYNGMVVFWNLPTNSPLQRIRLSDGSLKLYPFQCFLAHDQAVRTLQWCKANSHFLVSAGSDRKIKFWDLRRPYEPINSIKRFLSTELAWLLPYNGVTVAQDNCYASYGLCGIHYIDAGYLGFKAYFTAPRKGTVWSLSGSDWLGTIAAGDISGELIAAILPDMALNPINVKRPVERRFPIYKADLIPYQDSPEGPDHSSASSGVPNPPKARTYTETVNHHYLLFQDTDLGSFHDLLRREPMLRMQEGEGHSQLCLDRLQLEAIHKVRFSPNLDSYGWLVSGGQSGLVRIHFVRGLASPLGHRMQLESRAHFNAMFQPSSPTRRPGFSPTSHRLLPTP
# UniProt Q7Z4H7: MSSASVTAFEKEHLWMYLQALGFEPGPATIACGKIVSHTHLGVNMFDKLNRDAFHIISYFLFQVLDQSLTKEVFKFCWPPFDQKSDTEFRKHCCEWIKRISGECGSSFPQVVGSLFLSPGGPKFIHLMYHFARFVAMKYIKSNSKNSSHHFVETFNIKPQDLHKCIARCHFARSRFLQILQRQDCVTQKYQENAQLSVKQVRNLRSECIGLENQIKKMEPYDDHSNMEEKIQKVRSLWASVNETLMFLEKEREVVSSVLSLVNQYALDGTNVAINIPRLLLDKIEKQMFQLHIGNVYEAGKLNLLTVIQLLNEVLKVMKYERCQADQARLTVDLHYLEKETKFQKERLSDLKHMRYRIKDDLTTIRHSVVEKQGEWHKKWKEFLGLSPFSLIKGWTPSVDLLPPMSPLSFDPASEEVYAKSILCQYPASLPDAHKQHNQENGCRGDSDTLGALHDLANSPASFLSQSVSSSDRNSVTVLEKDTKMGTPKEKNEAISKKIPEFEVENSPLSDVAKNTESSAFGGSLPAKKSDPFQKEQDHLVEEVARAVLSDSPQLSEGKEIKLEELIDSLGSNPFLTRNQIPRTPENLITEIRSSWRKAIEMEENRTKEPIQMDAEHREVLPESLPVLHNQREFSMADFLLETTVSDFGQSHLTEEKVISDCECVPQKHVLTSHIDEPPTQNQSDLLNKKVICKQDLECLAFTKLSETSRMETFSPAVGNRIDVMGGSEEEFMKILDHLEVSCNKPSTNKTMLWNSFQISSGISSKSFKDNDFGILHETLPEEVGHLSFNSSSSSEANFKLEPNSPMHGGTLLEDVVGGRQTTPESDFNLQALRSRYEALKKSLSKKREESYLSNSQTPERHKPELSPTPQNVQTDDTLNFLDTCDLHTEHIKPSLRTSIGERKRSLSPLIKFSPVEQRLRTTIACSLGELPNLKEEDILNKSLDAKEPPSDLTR
# UniProt O94927: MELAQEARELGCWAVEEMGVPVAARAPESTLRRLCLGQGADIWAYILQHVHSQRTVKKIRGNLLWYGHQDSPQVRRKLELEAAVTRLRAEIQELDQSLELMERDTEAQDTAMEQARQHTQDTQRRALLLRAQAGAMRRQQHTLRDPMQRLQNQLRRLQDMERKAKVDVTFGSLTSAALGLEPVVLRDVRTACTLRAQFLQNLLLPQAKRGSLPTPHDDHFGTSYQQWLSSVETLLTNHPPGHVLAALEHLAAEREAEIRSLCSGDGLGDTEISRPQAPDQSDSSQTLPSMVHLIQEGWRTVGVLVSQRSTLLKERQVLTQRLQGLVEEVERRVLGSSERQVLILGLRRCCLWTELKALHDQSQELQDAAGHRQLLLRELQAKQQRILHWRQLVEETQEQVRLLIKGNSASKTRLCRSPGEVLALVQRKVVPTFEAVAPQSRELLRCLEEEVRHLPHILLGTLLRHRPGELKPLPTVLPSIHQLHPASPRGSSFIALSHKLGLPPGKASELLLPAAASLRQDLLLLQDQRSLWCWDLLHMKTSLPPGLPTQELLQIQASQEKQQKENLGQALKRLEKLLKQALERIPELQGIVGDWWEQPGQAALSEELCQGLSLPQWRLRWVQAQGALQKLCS
# UniProt P69892: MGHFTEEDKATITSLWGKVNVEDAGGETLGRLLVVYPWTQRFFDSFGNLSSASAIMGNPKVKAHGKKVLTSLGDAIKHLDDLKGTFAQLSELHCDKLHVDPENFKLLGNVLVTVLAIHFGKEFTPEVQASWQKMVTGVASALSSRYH
# UniProt Q8N4P3, whole entry, looked up: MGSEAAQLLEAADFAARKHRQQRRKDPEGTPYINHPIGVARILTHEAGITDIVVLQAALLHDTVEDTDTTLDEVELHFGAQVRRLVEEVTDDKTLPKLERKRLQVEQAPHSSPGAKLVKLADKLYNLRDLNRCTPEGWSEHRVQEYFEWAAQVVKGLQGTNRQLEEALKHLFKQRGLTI
# UniProt P53701: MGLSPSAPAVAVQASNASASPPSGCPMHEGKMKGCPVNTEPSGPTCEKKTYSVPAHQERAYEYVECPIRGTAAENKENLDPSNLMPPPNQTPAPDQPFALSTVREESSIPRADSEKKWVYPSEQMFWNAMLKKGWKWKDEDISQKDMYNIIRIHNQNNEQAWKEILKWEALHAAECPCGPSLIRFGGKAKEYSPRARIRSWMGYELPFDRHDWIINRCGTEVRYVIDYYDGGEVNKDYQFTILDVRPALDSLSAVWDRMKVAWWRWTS
# UniProt P16402, whole entry, looked up: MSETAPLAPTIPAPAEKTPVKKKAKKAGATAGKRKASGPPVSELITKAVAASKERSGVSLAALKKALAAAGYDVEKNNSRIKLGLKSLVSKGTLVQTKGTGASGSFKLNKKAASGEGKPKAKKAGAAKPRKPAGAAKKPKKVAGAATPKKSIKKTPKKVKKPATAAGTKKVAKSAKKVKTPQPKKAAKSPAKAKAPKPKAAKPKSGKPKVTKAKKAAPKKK
# UniProt Q8IYU2: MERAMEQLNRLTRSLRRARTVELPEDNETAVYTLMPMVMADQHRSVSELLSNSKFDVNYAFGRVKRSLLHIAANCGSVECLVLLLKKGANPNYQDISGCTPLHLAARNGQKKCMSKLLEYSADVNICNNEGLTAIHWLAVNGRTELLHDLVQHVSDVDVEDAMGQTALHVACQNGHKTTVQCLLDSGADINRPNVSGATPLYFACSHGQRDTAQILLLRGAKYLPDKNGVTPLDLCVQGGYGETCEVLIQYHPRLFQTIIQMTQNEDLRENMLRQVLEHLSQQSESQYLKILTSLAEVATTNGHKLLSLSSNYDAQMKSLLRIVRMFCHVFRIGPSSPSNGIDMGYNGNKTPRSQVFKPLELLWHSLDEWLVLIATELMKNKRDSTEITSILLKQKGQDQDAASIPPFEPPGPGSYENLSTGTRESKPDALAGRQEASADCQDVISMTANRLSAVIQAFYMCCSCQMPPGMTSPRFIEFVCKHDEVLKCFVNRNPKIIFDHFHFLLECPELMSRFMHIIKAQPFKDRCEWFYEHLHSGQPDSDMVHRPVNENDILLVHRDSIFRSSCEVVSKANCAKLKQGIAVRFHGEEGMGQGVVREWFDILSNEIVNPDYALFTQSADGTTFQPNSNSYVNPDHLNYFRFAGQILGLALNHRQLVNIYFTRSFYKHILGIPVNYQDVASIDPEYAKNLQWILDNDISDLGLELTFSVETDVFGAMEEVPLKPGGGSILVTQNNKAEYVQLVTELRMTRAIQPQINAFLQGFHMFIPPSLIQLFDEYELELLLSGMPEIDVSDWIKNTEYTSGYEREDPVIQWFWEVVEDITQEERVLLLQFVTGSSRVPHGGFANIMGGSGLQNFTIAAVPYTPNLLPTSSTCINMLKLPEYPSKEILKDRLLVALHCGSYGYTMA
# The other results are listed elsewhere or left out.
# Assays:
# Assay in all cases: log2 fold change, soluble protein after heating vs DMSO (PISA); higher = thermal stabilisation; K562 lysate, 10 uM; active = over 0.2 and 3.5 SD of the protein, either way, in both replicates (recomputed)
# [1] = compound: NCC(=O)Nc1ccc(-n2nc(C(F)(F)F)cc2-c2ccc3c(ccc4ccccc43)c2)cc1
# In short: (§1)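 To prepare the extract, K562 pellets were dounce-homogenised in PBS pH 7.4 with 1 mM MgCl2, giving crude material at 1 mg/mL protein. This was treated with 10 μM compound for 30 min, then heated in aliquots for 3 min over 48°C-58°C before pooling and addition of NP-40 to 0.5% at 4°C. Centrifugation at 21,000xg for 90 min left soluble protein in the supernatant, which TMTpro 16plex LC-MS/MS quantified with equalised channel sums. Results are log-two fold changes in thermal stability compared with solvent controls, from duplicates.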
# vorinostat = compound: O=C(CCCCCCC(=O)Nc1ccccc1)NO [vorinostat]
# In short: as §1
# silmitasertib = compound: O=C(O)c1ccc2c(c1)nc(Nc1cccc(Cl)c1)c1ccncc12 [silmitasertib]
# In short: as §1
# [2] = compound: O=C1NC(=O)C(c2cnc3ccccn23)=C1c1cn2c3c(cc(F)cc13)CN(C(=O)N1CCCCC1)CC2
# In short: as §1
# entospletinib = compound: c1cn2cc(-c3ccc4cn[nH]c4c3)nc(Nc3ccc(N4CCOCC4)cc3)c2n1 [entospletinib]
# In short: as §1
Target,log2 fold change [1],log2 fold change (vorinostat),log2 fold change (silmitasertib),log2 fold change [2],log2 fold change (entospletinib)
GSTK1 (UniProt Q9Y2Q3),inactive: 0.018,inactive: -0.037,inactive: 0.01,inactive: 0.011,inactive: -0.01
GYS1 (UniProt P13807),inactive: -0.02,inactive: 0.016,inactive: 0.051,inactive: -0.001,inactive: -0.033
HARS2 (UniProt P49590),inactive: 0.05,inactive: 0.009,inactive: 0.147,inactive: 0.08,inactive: -0.104
GULP1 (UniProt Q9UBP9),inactive: -0.071,inactive: -0.22,inactive: 0.045,inactive: -0.145,inactive: -0.014
GTSE1 (UniProt Q9NYZ3),inactive: 0.068,inactive: -0.18,inactive: -0.074,inactive: 0.096,inactive: -0.012
GTF2H1 (UniProt P32780),inactive: -0.019,active: -0.412,inactive: 0,inactive: -0.024,inactive: 0.035
GTSF1 (UniProt Q8WW33),inactive: -0.017,inactive: -0.003,inactive: -0.008,inactive: -0.014,inactive: 0.009
GSPT1 isoform 2 (UniProt P15170),inactive: 0.035,,,,
GTF3C2 (UniProt Q8WUA4),inactive: 0.043,inactive: -0.169,inactive: 0.024,inactive: -0.008,inactive: -0.044
HAUS6 (UniProt Q7Z4H7),inactive: -0.057,active: -0.3,inactive: 0.014,inactive: 0.007,inactive: 0.015
GUF1 (UniProt Q8N442),inactive: 0.237,inactive: -0.174,inactive: 0.008,inactive: 0.043,inactive: -0.006
HCFC1 (UniProt P51610),inactive: -0.196,inactive: 0.137,inactive: -0.508,inactive: 0.008,
GSR isoform 5 (UniProt P00390),inactive: 0.011,inactive: 0.16,inactive: -0.031,inactive: 0.095,
HAUS5 (UniProt O94927),inactive: 0.031,active: -0.416,inactive: 0.045,inactive: -0.015,inactive: 0.013
HBG2 (UniProt P69892),inactive: -0.123,inactive: 0.155,inactive: -0.039,inactive: 0.029,inactive: -0.049
HDDC3 (UniProt Q8N4P3),inactive: 0.057,inactive: 0.086,inactive: 0.026,inactive: -0.085,inactive: -0.03
GSTZ1 (UniProt G3V4T6),inactive: 0.088,inactive: 0.167,inactive: -0.002,inactive: -0.015,inactive: -0.031
HCCS (UniProt P53701),inactive: -0.009,inactive: 0.073,inactive: 0.003,inactive: 0.001,inactive: -0.016
HAX1 (UniProt O00165),inactive: 0.044,inactive: -0.054,inactive: 0.027,inactive: -0.003,inactive: -0.007
GSK3B isoform 2 (UniProt P49841),inactive: 0.02,inactive: 0.253,inactive: 0.421,inactive: 0.657,inactive: 0.05
H1-3 (UniProt P16402),inactive: 0.027,inactive: 0.163,inactive: -0.017,inactive: 0.03,inactive: 0.005
HACE1 (UniProt Q8IYU2),inactive: 0.183,inactive: -0.126,inactive: -0.002,inactive: 0.084,inactive: 0.012
HADHB (UniProt P55084),inactive: 0.047,inactive: -0.199,inactive: -0.033,inactive: 0.269,inactive: 0.063
GSTP1 (UniProt P09211),inactive: -0.011,active: -0.352,inactive: 0.127,inactive: 0.04,inactive: -0.001
HDAC1 (UniProt Q13547),inactive: 0.018,active: 0.644,inactive: -0.008,inactive: -0.015,inactive: 0.008

# Shown with tabs: part of the list above
Target	log2 fold change [1]	log2 fold change (vorinostat)	log2 fold change (silmitasertib)	log2 fold change [2]	log2 fold change (entospletinib)
HBG2 (UniProt P69892)	inactive: -0.123	inactive: 0.155	inactive: -0.039	inactive: 0.029	inactive: -0.049
HDDC3 (UniProt Q8N4P3)	inactive: 0.057	inactive: 0.086	inactive: 0.026	inactive: -0.085	inactive: -0.03
GSTZ1 (UniProt G3V4T6)	inactive: 0.088	inactive: 0.167	inactive: -0.002	inactive: -0.015	inactive: -0.031
HCCS (UniProt P53701)	inactive: -0.009	inactive: 0.073	inactive: 0.003	inactive: 0.001	inactive: -0.016
HAX1 (UniProt O00165)	inactive: 0.044	inactive: -0.054	inactive: 0.027	inactive: -0.003	inactive: -0.007
